# Test results: PubChem BioAssay AID2685 (National Center for Advancing Translational Sciences (NCATS), 2010)
# About 2,100 (0.66%) of roughly 320,000 compounds were called active. Inconclusive results, whose numbers are uncertain, are shown with a selection of clear calls. Calls follow the shape of the dose curve; as a rule, active = well fitted inhibition curve with a large enough effect in the signal ratio, with a control signal flat (not every such curve was filed as active); inconclusive = small, poorly fitted or top-dose-only effect, or effect the other way, or a change in a side signal; inactive = flat fitted curve, though single readings scatter; the % refers to the signal ratio. A potency beside an inconclusive call is a rough fit, not a confirmed value.
# Assay: qHTS Assay for Lipid Storage Modulators in Drosophila S3 Cells
# Conditions: BODIPY lipid droplet fluorescence, 18-24 h, cells fed with added oleic acid; lipid storage change, negative = inhibition: at 46.1 µM (top of the series) unless noted
# Method in brief: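 Drosophila S3 cells loaded with oleic acid (400 uM, as added) and compounds at several concentrations; lipid droplets imaged by 488-nm laser-scanning cytometry, 500–530 nm intensity and object ratio to cell channel. Percent activity normalized to 20 uM Triacsin C.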
# % is scaled to controls: 0 for no effect and ±100 for the full control effect; potency is read from the fitted curve at half-maximal effect.
Compound,Potency,"lipid storage change, negative = inhibition"
O=C(COC(=O)COc1ccc(Br)cc1)NCc1ccccc1,"inconclusive: 18400 nM [activator, partial curve]",
Cc1ccc(C)[n+](CC(=O)N2CCCCC2)c1,"inconclusive: 6510 nM [cytotoxic, partial curve, poor fit]",
COc1ccc(NC(=O)COc2cccc(-n3cnnn3)c2)cc1,,inactive
NC(=O)[C@H]1CC2(CC(c3cccc(NC(=O)COc4ccc(Cl)cc4)c3)=NO2)CN1C(=O)c1ccc(Cl)cc1 (some centres undefined),"inconclusive: 29100 nM [cytotoxic, single point]",
O=C(NC(=S)Nc1ccc(S(=O)(=O)Nc2nccs2)cc1)c1ccccc1,"inconclusive: 1160 nM [activator, full curve, poor fit]",
COc1ccccc1CCN=C(N)NS(=O)(=O)c1ccc(C)cc1,,inconclusive: -22.3% [at 9.22 µM]
NC(=O)Nc1ccc(C(=O)OCC(=O)N2CCCC2=O)cc1,,inactive
CCOc1ccc(S(=O)(=O)Nc2ccc3c(c2)c2c(n3S(=O)(=O)c3ccc(OCC)cc3)CCCC2=O)cc1,,inconclusive: 20.8%
Cc1noc(NS(=O)(=O)c2ccc(NC(=O)CSc3nc4c(cc3C#N)CCC4)cc2)c1C,"inconclusive: 20600 nM [activator, single point]",
Cc1ccc2c(CC(=O)O)coc2c1C,,inconclusive: -39.4%
Cc1onc(-c2ccccc2Cl)c1C(=O)N1CCN(C)CC1,,inconclusive: -9.33%
CCOC(=O)CSc1nc(N)c(C#N)c(-c2ccc(OC)cc2)c1C#N,"inconclusive: 517 nM [activator, single point]",
O=C(COC(=O)C1CCN(S(=O)(=O)c2cccs2)CC1)Nc1ccccc1,,inconclusive: -27.7%
CC(Sc1ncnc2c1cnn2-c1ccccc1)C(=O)NCC1CCCO1 (centres undefined),,inconclusive: -65%
CCOC(=O)c1[nH]nc(C(=O)c2ccc(Br)cc2)c1O,,inconclusive: 6.76%
Cc1cc(C(=O)Nc2c(C)n(C)n(-c3ccccc3)c2=O)c2ccccc2n1,,inconclusive: -60.5%
O=c1c(Cc2ccc(F)cc2)c(O)ccn1Cc1ccco1,,inconclusive: -37.7% [cytotoxic] [at 0.00295 µM]
COCCn1c(=O)[nH]c2cc(C(=O)NC3CCCCCC3)ccc2c1=O,,inconclusive: 13.3%
Cc1ccc(-c2csc(N3CCN(c4cc5c(cc4Cl)nc(-c4ccncc4)n5CCN4CCCCC4)CC3)n2)cc1,"inconclusive: 29100 nM [falling, single point]",
Cc1cc(C)c2nc(NC(=O)c3cccc(S(=O)(=O)N4CCc5ccccc54)c3)sc2c1,,inconclusive: -18.2%
O=C(CSc1nnc(-c2ccncc2)o1)Nc1ccccc1C(F)(F)F,,inconclusive: 6.29%
NC(=O)CC1NC(=O)c2ccccc21 (centres undefined),,inconclusive: -15.3%
COc1ccc(C)cc1NC(=O)CN1CCCN(S(=O)(=O)c2ccc(Br)cc2)CC1,"inconclusive: 10300 nM [activator, partial curve]",
O=C(COC(=O)CCSc1ccccc1Cl)Nc1ccc(F)cc1F,,inconclusive: 24%
CC(NS(=O)(=O)c1ccc2c(c1)CC(=O)N2C)c1ccccc1 (centres undefined),,inconclusive: -13.6%

# Copied from the results shown, 5 compounds:
Compound,Potency,"lipid storage change, negative = inhibition"
Cc1noc(NS(=O)(=O)c2ccc(NC(=O)CSc3nc4c(cc3C#N)CCC4)cc2)c1C,"inconclusive: 20600 nM [activator, single point]",
Cc1ccc2c(CC(=O)O)coc2c1C,,inconclusive: -39.4%
Cc1onc(-c2ccccc2Cl)c1C(=O)N1CCN(C)CC1,,inconclusive: -9.33%
CCOC(=O)CSc1nc(N)c(C#N)c(-c2ccc(OC)cc2)c1C#N,"inconclusive: 517 nM [activator, single point]",
O=C(COC(=O)C1CCN(S(=O)(=O)c2cccs2)CC1)Nc1ccccc1,,inconclusive: -27.7%

# The results go on.

Compound,Potency,"lipid storage change, negative = inhibition"
CCOC(=O)N1CCC(Nc2c(NCCCN(C)Cc3ccccc3)c(=O)c2=O)CC1,,inconclusive: -34.1%
Cc1ccc(C(=O)N2CCCCC2)cc1S(=O)(=O)N1CCOCC1,,inconclusive: -32.4%
Cc1cc(C(=O)N/N=C/c2cccc([N+](=O)[O-])c2O)n[nH]1,,inconclusive: -5.68%
CCCCNC(=S)N1CCN(C(c2ccccc2)c2ccccc2)CC1,,inconclusive: 11.9%
COc1ccc(S(=O)(=O)N2CCOCC2)cc1NC(=O)c1sccc1C,,inconclusive: 9.23%
CCOC(=O)C1CCN(C(c2cc3ccc(C)c(C)c3[nH]c2=O)c2nnnn2C2CCCCC2)CC1 (centres undefined),"inconclusive: 580 nM [activator, full curve]",
CC(=O)c1c(N2CCN(CCO)CC2)nc(=S)n(-c2ccccc2)c1C,,inconclusive: -21.7%
Cc1c(/C=N\NC(=O)C2(C)CC2(Cl)Cl)cnn1C (centres undefined),,inconclusive: -11.5%
Cc1cnc(C(=O)Nc2nccs2)cn1,,inconclusive: -15%
COC(=O)c1cc(OC)c(OC)cc1NC(=O)CN1CCCCC1,"inconclusive: 6510 nM [activator, single point]",
C/C(CC(=O)Nc1cccc(C(F)(F)F)c1)=N/NC(=O)C(=O)NCCO,,inconclusive: -2.37%
COc1ccc(C)cc1NC(=O)C(Sc1nnnn1C)c1ccccc1 (centres undefined),,inconclusive: 1.39% [at 9.22 µM]
C[C@@]12C(=O)Nc3ccc(Br)cc3C(=O)N1[C@H]1c3cc(Br)ccc3OC[C@@H]1[C@@H]2c1ccccc1,,inconclusive: 4.16%
COc1ccc(N(C)S(=O)(=O)c2cccc(C(=O)Nc3ccc(OC)nc3)c2)cc1,,inconclusive: -3.69%
CC1CCCCN1C(=O)CN1CCN(S(=O)(=O)c2ccc(Br)cc2Cl)CC1 (centres undefined),"inconclusive: 1030 nM [falling, partial curve, poor fit]",
CCCNC(=O)C1(CC2CC(c3ccccc3)=NO2)CCN(C(=O)C2CCCC2)CC1 (centres undefined),,inconclusive: 7.04%
CCc1ccccc1NC(=O)C/C(C)=N/NC(=O)COc1ccccc1C,,inconclusive: -90.2%
Cc1nc([N+](=O)[O-])c(Sc2nc3ccc([N+](=O)[O-])cc3[nH]2)n1Cc1ccccc1,,inconclusive: -15.4%
Cc1onc(-c2c(F)cccc2Cl)c1C(=O)c1ccc(F)cc1,,inconclusive: 10.5%
Cc1ccc(N2C(=O)CC(NCc3ccc4c(c3)OCO4)C2=O)cc1Cl (centres undefined),"inconclusive: 146 nM [falling, full curve, poor fit]",
c1c(CC2CCCC2)nnn1C[C@H]1CC[C@@H]([C@@H]2CC[C@H](Cn3cc(CC4CCCC4)nn3)O2)O1,,inconclusive: -27.1%
Cn1c(SCC(=O)c2ccc(O)cc2O)nnc1-c1ccccc1,,inconclusive: 11.8%
COCCN(C(=S)Nc1ccccc1C)C(C)c1cccs1 (centres undefined),,inconclusive: 17.9%
COc1ccc(C(=O)NN/C(=N/S(=O)(=O)c2ccc(C)cc2)c2ccccc2)cc1,,inconclusive: 9.69%
Cc1ccccc1OCC(=O)N/N=C/c1cn(C)c2ccccc12,"inconclusive: 461 nM [activator, full curve]",

Compound,Potency,"lipid storage change, negative = inhibition"
O=C(COc1ccc(Cl)cc1)N(Cc1ccccc1)c1ccccn1,,inconclusive: -23.1%
Cc1oc2cc(O)ccc2c(=O)c1Oc1ccc2ccccc2c1,,inconclusive: -19.6%
Cc1scc(-c2n[nH]c(=S)n2C(C)c2ccccc2)c1C (centres undefined),,inconclusive: 6.71%
O=C(CN1CCN(c2ccccc2O)CC1)Nc1cc([N+](=O)[O-])ccc1Cl,"inconclusive: 29100 nM [falling, single point]",
Cc1cc(N/N=C/c2ccc([N+](=O)[O-])o2)nc2ccccc12,,inconclusive: -99.7%
CS(=O)(=O)N(CC(=O)Nc1ccc(S(=O)(=O)N2CCCC2)cc1)c1ccccc1F,,inconclusive: -10%
O=C1CCC([N+](=O)[O-])C(c2ccc(Br)cc2)N1 (centres undefined),,inconclusive: 2.14%
CCN(CC)S(=O)(=O)c1ccc(NC(=O)C2CCCN(C(=O)c3ccc(Cl)cc3)C2)cc1 (centres undefined),,inconclusive: -72.3%
CC(C)CC(=O)Nc1nnc(S(=O)(=O)N(C)c2ccc(Cl)cc2)s1,,inconclusive: 24.2%
CC(C)(C)CC(C)(C)NC(=S)NC1CCN(Cc2ccccc2)CC1,"inconclusive: 20600 nM [falling, single point]",
COc1ccc(OC)c(/C=N\NC(=O)CSc2nnc(CCCc3ccc(OC)c(C)c3)o2)c1,,inconclusive: 15%
Cc1cc(NC(=O)CS(=O)CC(=O)Nc2c(C)cccc2C)ccc1-n1cnnn1 (centres undefined),,inconclusive: 84.2%
COc1ccc(-n2c(C)cc(C(=O)COC(=O)c3cc(OC)c(OC)cc3NC(=O)c3cccs3)c2C)cc1,,inconclusive: 24.2%
COc1cccc(CNC(=O)CN2C(=O)NC(c3ccccc3)(c3ccccc3)C2=O)c1,,inconclusive
Cc1ccc(NC(=O)C(c2ccccc2)N2CCN(C(=O)c3ccco3)CC2)cc1Cl (centres undefined),"inconclusive: 366 nM [falling, single point]",
Cc1ccc(NC(=S)NCCc2ccccc2)nc1,,inconclusive: 7.93%
O=S(=O)(c1cccc2cccnc12)n1cnc2ccccc21,"inconclusive: 411 nM [activator, single point]",
O=C(N/N=C/c1cc(O)ccc1[N+](=O)[O-])c1ccc2c(c1)OCCO2,"inconclusive: 820 nM [falling, full curve, poor fit]",
CN(C)CCCN(C(=O)COc1ccc(Cl)cc1)c1nc2cc3c(cc2s1)OCO3,,inconclusive: -6.56%
O=C(CSc1nnc(-c2cnccn2)n1Cc1ccco1)c1ccc(Cl)c(Cl)c1,,inconclusive: 55.6% [activator]
Cc1sc2ccccc2[n+]1CCC(C)S(=O)(=O)[O-] (centres undefined),,inconclusive: 5.38%
COc1cc(C2C(C(=O)c3cccs3)=C(O)C(=O)N2CCN2CCOCC2)cc(OC)c1OC (centres undefined),,inconclusive: -1.66%
Cc1ccc(S(=O)(=O)NCc2ccc(C(=O)NCCCN3CCC(Cc4ccccc4)CC3)cc2)cc1,,inconclusive: -5.87%
COc1ccc2c(c1)c(=O)oc1cc(OCC(=O)NC3CC3)ccc12,"inconclusive: 2590 nM [activator, full curve]",
